Some results were stated once for a whole list of compounds, not compound by compound.
Test system: non-transformed iris cells
Assay: Evaluation of selection agents: growth suppression of non-transformed iris suspension-cultured cells on MS-C medium
Format: cell-based, Iris germanica
Settings: 50 to 100 mg·L^−1; three weeks on MS-C medium
Method: Evaluation of selection agents. […] To determine the efficacy of several commonly used agents for selecting transformed iris cells, the following substances were tested: five antibiotics (methotrexate, hygromycin, geneticin (G418), gentamycin, and phleomycin); three herbicides (glyphosate [N-(Phosphonomethyl)glycine] (Monsanto, St. Louis, Mo.), chlorsulfuron [2-Chloro-N-[[(methoxy-6-methyl-1,3,5-triazin-2-yl)amino]carbonyl]benzenesulfonamide] (E.I. Du Pont de Nemours & Co., Inc., Agricultural Products Dept., Wilmington, Del.) and glufosinate-ammonium (Basta; Hoechst Canada, Inc., Regina, Saskatchewan, Canada)); and one amino acid analog (4-methyl-tryptophan) (Sigma).
The liquid MS-L medium was removed from a three-week-old iris suspension culture and the cells spread on Whatman No. 1 filter papers (42.5 mm diameter) in small culture plates (60 mm×15 mm), over MS-C medium [MS-L medium with 3 g·L^−1 Phytagel (Sigma Chem. Co., St. Louis, Mo.), as described in Examples 1 and 2] containing increasing amounts of the selection agent. Plates were incubated for three weeks in the dark at 25° C. In preliminary experiments, five concentrations of each selection agent were tested and inhibition of cell growth was scored visually.
Fresh weights of resultant tissue were measured and mean values, expressed as a percentage of growth by controls (no selection agent). […]

How did the growth inhibition turn out when `CN[C@@H]1[C@@H](O)[C@@H](O[C@@H]2[C@@H](O)[C@H](O[C@H]3O[C@H]([C@@H](C)O)[C@@H](O)[C@H](O)[C@H]3N)[C@@H](N)C[C@H]2N)OC[C@]1(C)O` [geneticin] was run?
The growth inhibition was 40%-50%.

Source: patent US6459017B1, “Iris transformation method” (The State of Oregon Acting By and Through the State Board …, priority 2000, dated 2002)
